Test results: PubChem BioAssay AID588590 (National Center for Advancing Translational Sciences (NCATS), 2011)
About 4,000 (1%) of roughly 390,000 compounds were called active. This list was built around the results that the source calls inconclusive (neither active nor inactive); the mix of calls is not that of the screen. The call rests on the fitted dose curve; in most records, active means well fitted inhibition curve with a large enough effect; inconclusive means small, poorly fitted or top-dose-only effect, or another doubt; inactive means no such curve, though single readings can be large or run the other way. Potencies beside an inconclusive call are fits to weak or partial responses and may not hold up.

Protein sequences, listed by entry. Tags and fused reporters are not part of them. Lines headed by an entry give the natural chain unless they say otherwise; changes in a name come on top.
UniProt Q9UNA4: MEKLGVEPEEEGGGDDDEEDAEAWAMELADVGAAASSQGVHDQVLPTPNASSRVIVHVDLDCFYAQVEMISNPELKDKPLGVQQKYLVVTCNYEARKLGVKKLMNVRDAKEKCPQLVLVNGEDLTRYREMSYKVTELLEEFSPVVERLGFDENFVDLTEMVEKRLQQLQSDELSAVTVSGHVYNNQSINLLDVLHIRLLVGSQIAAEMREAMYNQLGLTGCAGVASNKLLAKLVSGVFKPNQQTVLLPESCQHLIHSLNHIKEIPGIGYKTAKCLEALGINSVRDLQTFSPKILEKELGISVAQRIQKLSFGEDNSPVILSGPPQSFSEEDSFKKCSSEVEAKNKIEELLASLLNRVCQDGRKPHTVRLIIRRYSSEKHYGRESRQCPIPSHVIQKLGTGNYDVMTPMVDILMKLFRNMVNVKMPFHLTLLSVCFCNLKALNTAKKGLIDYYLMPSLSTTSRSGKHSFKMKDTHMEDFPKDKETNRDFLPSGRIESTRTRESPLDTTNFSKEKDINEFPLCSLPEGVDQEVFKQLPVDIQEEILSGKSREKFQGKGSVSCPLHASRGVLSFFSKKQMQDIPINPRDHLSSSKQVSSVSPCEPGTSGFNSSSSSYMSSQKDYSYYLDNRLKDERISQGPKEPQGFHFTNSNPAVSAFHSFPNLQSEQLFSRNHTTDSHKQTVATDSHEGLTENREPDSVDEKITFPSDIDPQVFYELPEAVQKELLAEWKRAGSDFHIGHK

Biological target: DNA polymerase iota (Homo sapiens) (UniProt Q9UNA4)
Test: qHTS for Inhibitors of Polymerase Iota
Conditions: Pol iota fluorescent replication assay, 10 min; series mostly up to 115 µM; activity, negative = inhibition: at the top concentration
In short: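 Pol iota at 10 nM preincubated 15 min with compounds at room temperature; reaction started with fluorescent substrate, 50 nM final. Fluorescence read kinetically at 0 and 10 min; buffer-only wells as negative control.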
Potency means the concentration at half of the fitted maximal effect.

Structure (SMILES)	Potency	activity, negative = inhibition
COc1cc(CNC(=O)c2cc3n(n2)CCCN(Cc2cccc(F)c2)C3=O)cc(OC)c1OC	inconclusive: 89.1 µM [inhibitor, partial curve, poor fit]	–
CN(C)C1=NC[C@H](Cc2ccccc2)N1CC1CCCC1	inconclusive: 12.6 µM [inhibitor, partial curve, poor fit]	–
CSc1cccc(NC(=O)c2cc3c(COC(C)=O)cnc(C)c3oc2=O)c1	–	inactive: -0.0849%
CC1c2ccccc2N(S(=O)(=O)c2ccccc2)C1C (stereo unspecified)	–	inactive: 15.7%
Cn1cccc1-c1cc(C(=O)N/N=C/c2ccc(F)cc2)[nH]n1	inconclusive: 28.2 µM [inhibitor, partial curve, poor fit]	–
COc1ccc(OC)c(/C=C/c2[nH]c(=O)[nH]c(=O)c2[N+](=O)[O-])c1	–	inactive: 71.2%
CN1CCN(C(=O)c2ccc3c(c2)N(Cc2ccc(C(F)(F)F)cc2)C(=O)c2ccccc2S3)CC1	inconclusive: 39.8 µM [inhibitor, single point]	–
O=C(c1ccccc1)N1CCN(Cc2ccccc2Br)CC1	inconclusive: 10 µM [inhibitor, partial curve, poor fit]	–
CC1=C(C(=O)c2ccccc2)C(c2cn(-c3ccccc3)nc2-c2ccc(Cl)cc2)NC(=S)N1 (stereo unspecified)	inconclusive: 56.2 µM [inhibitor, partial curve, poor fit]	–
CCc1ccc2ncc3c(-c4ccc(C)cc4)nn(CC(=O)NCc4ccccc4)c3c2c1	–	inactive: -9.65%
CCOC(=O)c1ccc(NC(=O)c2nc[nH]c2C(=O)N(CC)CC)cc1	inconclusive: 89.1 µM [inhibitor, partial curve, poor fit]	–
Cc1csc(=O)n1CCC(=O)OCC(=O)Nc1cc(Cl)ccc1[N+](=O)[O-]	inconclusive: 89.1 µM [inhibitor, partial curve, poor fit]	–
CC1(C)OC(=O)C(=Cc2ccc(-c3ccc(Cl)c(C(=O)O)c3)o2)C(=O)O1	inconclusive: 20 µM [inhibitor, full curve, poor fit]	–
CC(=O)c1ccc(N2CCN(CC(=O)NCc3ccccc3)CC2)cc1	inconclusive: 3.55 µM [inhibitor, single point]	–
COc1ccc(OC)c(NC(=O)CSc2nc3ccccc3cc2Cc2ccccc2)c1	inconclusive: 89.1 µM [inhibitor, single point]	–
CCc1ccccc1NC(=O)CCS(=O)(=O)c1ccc(OC)cc1	–	inactive: 30.8%
CCc1ccc(NC(=O)Cn2c(SCc3ccc(C)cc3)nc3ccncc32)cc1	inconclusive: 63.1 µM [inhibitor, partial curve, poor fit]	–
CC(=O)c1ccccc1Oc1ncnc(N)c1[N+](=O)[O-]	inconclusive: 100 µM [inhibitor, partial curve, poor fit]	–
COc1ccc(C=CC(=O)c2ccc(OC)c(OC)c2O)cc1OC	inconclusive: 17.8 µM [inhibitor, partial curve, poor fit]	–
N#CC1=C(SCc2ccccc2)NC2=C(C(=O)CCC2)C1c1ccc2c(c1)OCO2 (stereo unspecified)	inconclusive: 2.24 µM [inhibitor, full curve, poor fit]	–
CN(C)c1ccc(NC(=O)Cn2c(SCc3ccc(F)cc3)nc3ccncc32)cc1	–	inactive: -8.96%

Structure (SMILES)	Potency	activity, negative = inhibition
CCC1CCc2c(sc(NC(=O)c3ccco3)c2C(N)=O)C1 (stereo unspecified)	inconclusive: 39.8 µM [inhibitor, single point]	–
CCOC(=O)c1c(CC(C)C)csc1NC(=O)CCl	inconclusive: 39.8 µM [inhibitor, single point]	–
O=C1/C(=C/c2cccc(Br)c2)SC(=S)N1/N=C/c1cc([N+](=O)[O-])ccc1O	inconclusive: 12.6 µM [inhibitor, full curve, poor fit]	–
CN(C)c1ccc(/C=C2\NC(=S)N(Cc3ccccc3)C2=O)cc1	inconclusive: 39.8 µM [inhibitor, single point]	–
CCOc1ccc(OCc2ccc(C(=O)N3CCc4ccccc4C3)o2)cc1	inconclusive: 31.6 µM [inhibitor, partial curve, poor fit]	–
C=CCn1c(SCC(=O)NCC2CCCO2)nc2scc(-c3ccco3)c2c1=O (stereo unspecified)	inconclusive: 56.2 µM [inhibitor, partial curve, poor fit]	–
Cc1cn2c(=O)cc(COc3ccccc3NC(=O)c3ccco3)nc2s1	inconclusive: 39.8 µM [inhibitor, single point]	–
CN(C(=S)NC(=O)C12CC3CC(CC(C3)C1)C2)c1ccc(O)cc1	inconclusive: 3.98 µM [inhibitor, full curve, poor fit]	–
COc1cc(/C=C2\SC(=S)N(CCC(=O)Nc3ccc(O)cc3)C2=O)cc(OC)c1OC	–	inactive: -7.93%
COc1ccccc1N1CCN(S(=O)(=O)c2ccc(-c3ccc(=O)[nH]n3)o2)CC1	inconclusive: 89.1 µM [inhibitor, single point]	–
Cc1ccc(C(=O)Nc2ccc3nc(SCC(=O)N4CCCc5ccccc54)sc3c2)cc1	–	inactive: 13.8%
O=C(O)c1cccc(N2CCCC2=O)c1	inconclusive: 89.1 µM [inhibitor, single point]	–
CCOC(=O)[C@H]1[C@H]2COc3ccccc3[C@@H]2N2C(=O)c3cc(Br)ccc3NC(=O)[C@@]12C	inconclusive: 50.1 µM [inhibitor, single point]	–
COc1ccc2c3c(ccc2c1)C(=O)/C(=C/O)CC3	–	inactive: 8.97%
COc1ccc(N2CCN(CCCNC(=O)CN3CCN(Cc4ccccc4C)C3=O)CC2)cc1	inconclusive: 0.891 µM [inhibitor, full curve, poor fit]	–
COc1ccc(C2=CCCC2)c(OC)c1	inconclusive: 100 µM [inhibitor, single point]	–
O=C(/C=C/c1ccccc1Cl)NNC(=O)c1cccs1	inconclusive: 39.8 µM [inhibitor, partial curve, poor fit]	–
c1ccc(-n2nnc3ccccc32)cc1	–	inactive: 29.9%
CCCCC(=O)N(c1ccc2oc(C)c(C(C)=O)c2c1)S(=O)(=O)c1ccc(F)cc1C	inconclusive: 1.41 µM [inhibitor, full curve, poor fit]	–
Cc1onc(-c2ccccc2Cl)c1C(=O)Nc1ccc(-n2nncc2-c2ccco2)cc1	inconclusive: 39.8 µM [inhibitor, partial curve, poor fit]	–
CCOC(=O)Cc1cn2c(=O)cc(CSCC(=O)Nc3ccc(C)c(C)c3)nc2s1	inconclusive: 25.1 µM [inhibitor, partial curve]	–

2 compounds picked at random from the list so far:
Structure (SMILES)	Potency	activity, negative = inhibition
O=C(O)c1cccc(N2CCCC2=O)c1	inconclusive: 89.1 µM [inhibitor, single point]	–
COc1ccc(OC)c(NC(=O)CSc2nc3ccccc3cc2Cc2ccccc2)c1	inconclusive: 89.1 µM [inhibitor, single point]	–

Next results:

Structure (SMILES)	Potency	activity, negative = inhibition
CCc1ccc(CN(Cc2ccco2)c2cnc(S(C)(=O)=O)nc2C(=O)Nc2cccc(C)c2)cc1	–	inactive: -7.39%
Cc1cc(C)cc(NC(=O)CSc2nc(=O)n(CCCN3CCOCC3)c3c2CCCC3)c1	–	inactive: 79.9%
CCN(C[C@H]1N[C@@](CC)(C(=O)OC)[C@H]2C(=O)N(C)C(=O)[C@@H]12)C(C)=O	inconclusive: 56.2 µM [inhibitor, single point]	–
CCOC(=O)COc1ccc([N+](=O)[O-])cc1-c1ccnc2cc(-c3ccc(Cl)cc3)nn12	inconclusive: 89.1 µM [inhibitor, single point]	–
COc1cc([N+](=O)[O-])cc(/C=N/NC(=O)c2cc(C)nc3ccccc23)c1O	inconclusive: 8.91 µM [inhibitor, full curve, poor fit]	–
COC(=O)c1ccc(NC(=O)CSc2nc(=O)[nH]c3c2CCCC3)cc1	–	inactive: 18.8%
CC(=O)NC(=S)NNC(=O)COc1ccc(Br)cc1	inconclusive: 50.1 µM [inhibitor, partial curve, poor fit]	–
CNC(=O)C1CCC(Cn2c(=O)c3sccc3n(CC(=O)NCc3ccccc3)c2=O)CC1 (stereo unspecified)	inconclusive: 89.1 µM [inhibitor, partial curve, poor fit]	–
COCCCNC(=O)c1oc2c(c1C)-c1nn(Cc3ccccc3Cl)cc1CC2	–	inactive: 2.05%
NC(=O)c1ncn([C@@H]2O[C@H](CNCc3cc(Br)ccc3OCc3ccccc3)[C@@H](O)[C@H]2O)n1	inconclusive: 100 µM [inhibitor, single point]	–
O=C(/C=C/c1ccccc1)N1CCN(CCN2C(=O)c3cccc4cccc(c34)C2=O)CC1	inconclusive: 89.1 µM [inhibitor, single point]	–
CN(C)C(CNC(=O)CCNC(=O)c1ccccc1Cl)c1ccco1 (stereo unspecified)	inconclusive: 50.1 µM [inhibitor, partial curve, poor fit]	–
COc1ccc(CC(=O)OCC(=O)Nc2ncc(Cl)cc2Cl)cc1	inconclusive: 11.2 µM [inhibitor, full curve, poor fit]	–
CC(C)OCCCn1c(=O)c2ccccc2n2c(-c3ccc(F)cc3)nnc12	inconclusive: 79.4 µM [inhibitor, partial curve, poor fit]	–
CCOC(=O)c1c(C)[nH]c(C(=O)COC(=O)[C@H](C)N2C(=O)C3CCCCC3C2=O)c1C (stereo partly specified)	inconclusive: 100 µM [inhibitor, partial curve, poor fit]	–
O=C(N[C@@H](Cc1ccccc1)C(=O)CCl)OCc1ccccc1	inconclusive: 12.6 µM [inhibitor, full curve, poor fit]	–
CCOC(=O)c1c(C)sc(-c2c(-c3cccc(Cl)c3)[nH]c3c2c(=O)n(C)c(=O)n3C)c1O	active: 79.4 µM	–
CC(=O)Nc1ccc(NC(=O)CSc2ccc(-c3ccco3)nn2)cc1	inconclusive: 15.8 µM [inhibitor, full curve, poor fit]	–
COc1ccc(NC(=O)C2=C(C)Nc3ncnn3C2c2ccc[nH]2)cc1 (stereo unspecified)	inconclusive: 89.1 µM [inhibitor, single point]	–
